The exact form of at least one protein or probe is not confirmed. For part of these data: No signal at the amounts used counts as a negative. For part of these data: Where a protein sequence is shown, tags need not be part of it. For part of these data: A weaker result is weaker than the reference pair of the same experiment. For part of these data: At least one verdict rests on a figure or table, not on a statement of the authors.
Columns and labels:
RAD-51 [1] = assay: EMSA (glutaraldehyde crosslinked), competition; settings: ADP, SF buffer: 50 mM Tris-HCl pH 7.5, 5 mM MgCl2, 50 mM NaCl, 2 mM ATP or ADP or no nucleotide, EMSA 25 C with 0.125% glutaraldehyde, recombinant protein, protein details: His-SUMO removed by Ulp1, label: 5'-FITC, single-stranded DNA
RAD-51 [2] = assay: EMSA (glutaraldehyde crosslinked); settings: no nucleotide, SF buffer: 50 mM Tris-HCl pH 7.5, 5 mM MgCl2, 50 mM NaCl, 2 mM ATP or ADP or no nucleotide, EMSA 25 C with 0.125% glutaraldehyde, recombinant protein, protein details: His-SUMO removed by Ulp1, label: 5'-FITC, single-stranded DNA
RAD-51 [3] = assay: stopped-flow Cy3 fluorescence, competitor challenge; settings: ADP, with RFS-1/RIP-1, filament destabilized, SF buffer: 50 mM Tris-HCl pH 7.5, 5 mM MgCl2, 50 mM NaCl, 2 mM ATP or ADP or no nucleotide, EMSA 25 C with 0.125% glutaraldehyde, recombinant protein, protein details: His-SUMO removed by Ulp1, single-stranded DNA
RAD-51 [4] = assay: stopped-flow Cy3 fluorescence; settings: SF buffer: 50 mM Tris-HCl pH 7.5, 5 mM MgCl2, 50 mM NaCl, recombinant protein, protein details: His-SUMO removed by Ulp1, single-stranded DNA
scRad51 = target: T1, scRad51 (UniProt P25454); assay: stopped-flow Cy3 fluorescence; settings: SF buffer: 50 mM Tris-HCl pH 7.5, 5 mM MgCl2, 50 mM NaCl, 2 mM ATP or ADP or no nucleotide, recombinant protein, label: Cy3, single-stranded DNA
T1 sequence (looked up, limits assumed): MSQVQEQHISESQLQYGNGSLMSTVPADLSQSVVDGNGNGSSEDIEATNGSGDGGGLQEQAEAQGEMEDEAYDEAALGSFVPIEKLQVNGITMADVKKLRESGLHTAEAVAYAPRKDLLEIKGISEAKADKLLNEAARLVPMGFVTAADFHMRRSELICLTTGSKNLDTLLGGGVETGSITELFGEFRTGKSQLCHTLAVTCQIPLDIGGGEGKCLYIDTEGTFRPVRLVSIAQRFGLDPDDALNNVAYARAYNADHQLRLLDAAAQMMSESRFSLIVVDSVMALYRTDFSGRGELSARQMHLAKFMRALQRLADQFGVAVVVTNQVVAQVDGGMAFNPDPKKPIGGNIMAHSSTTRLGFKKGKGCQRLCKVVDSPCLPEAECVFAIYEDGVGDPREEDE

Protein sequences, listed by entry. Tags and fused reporters are not part of them.
UniProt Q06609, whole entry: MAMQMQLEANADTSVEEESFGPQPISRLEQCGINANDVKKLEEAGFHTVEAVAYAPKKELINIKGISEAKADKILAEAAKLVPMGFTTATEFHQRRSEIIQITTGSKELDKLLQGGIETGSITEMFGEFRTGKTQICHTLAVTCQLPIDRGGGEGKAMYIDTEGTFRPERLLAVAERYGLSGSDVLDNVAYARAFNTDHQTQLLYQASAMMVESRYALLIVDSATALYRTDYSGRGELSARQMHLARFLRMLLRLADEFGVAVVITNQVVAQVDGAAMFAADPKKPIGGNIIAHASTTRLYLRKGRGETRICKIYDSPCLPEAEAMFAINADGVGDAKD

hsRAD51 (human) = hsRAD51 (human) (UniProt Q06609); assay: stopped-flow Cy3 fluorescence; settings: SF buffer: 50 mM Tris-HCl pH 7.5, 5 mM MgCl2, 50 mM NaCl, 2 mM ATP or ADP or no nucleotide, label: Cy3, single-stranded DNA
RAD-51 D238A = assay: stopped-flow Cy3 fluorescence; settings: SF buffer: 50 mM Tris-HCl pH 7.5, 5 mM MgCl2, 50 mM NaCl, 2 mM ATP or ADP or no nucleotide, recombinant protein, label: Cy3, single-stranded DNA
RAD-51 [5] = assay: BLI; settings: SF buffer: 50 mM Tris-HCl pH 7.5, 5 mM MgCl2, 50 mM NaCl, 2 mM ATP or ADP or no nucleotide, BLI room temperature with 0.05% Tween 20, recombinant protein, protein details: His-SUMO removed by Ulp1, label: biotin (3' in text, table prints 5'-Biotin), single-stranded DNA

“GACGCTGCCGAATTCTACCAGTGCCTTGCTAGGACATCTTTGCCCACCTGCAGGTTCACCC [5'-FITC-61mer]”: binds (RAD-51 [1]; RAD-51 alone); binds more weakly (RAD-51 [1]; with 0.5 uM RFS-1/RIP-1, more prone to dissociation by unlabelled 61mer); binds (RAD-51 [2]; RAD-51 alone, complexes in wells). “GACGCTGCCGAATTCTACCAGTGCCTTGCTAGGACATCTTTGCCCACCTGCAGGTTCACCC [5'-FITC-61mer]”: binds more weakly (RAD-51 [2]; with RFS-1 E138A/RIP-1, less free DNA than with wild type); binds more weakly (RAD-51 [2]; with RFS-1 K56A/RIP-1, less free DNA than with wild type); binds more weakly (RAD-51 [2]; with wild-type RFS-1/RIP-1, more free ssDNA).

“TTTTTTTTTTTTTTTTTTTTTTTTTTTTTTTTTTTTTTTTTTT [3'-Cy3-43mer]”: binds more weakly (RAD-51 [3]; label: 3'-Cy3); binds (RAD-51 [4]; ADP, 250 nM RAD-51, stimulated by RFS-1/RIP-1, 2 mM ATP or ADP or no nucleotide, label: 3'-Cy3); binds (RAD-51 [4]; ATP, 250 nM RAD-51, stimulated by RFS-1/RIP-1, 2 mM ATP or ADP or no nucleotide, label: 3'-Cy3).

“TTTTTTTTTTTTTTTTTTTTTTTTTTTTTTTTTTTTTTTTTTT [5'-Cy3-43mer]”: binds more weakly (RAD-51 [3]; label: 5'-Cy3); binds (RAD-51 [4]; ADP, 250 nM RAD-51, stimulated by RFS-1/RIP-1, 2 mM ATP or ADP or no nucleotide, label: 5'-Cy3); binds (RAD-51 [4]; ATP, 250 nM RAD-51, stimulated by RFS-1/RIP-1, 2 mM ATP or ADP or no nucleotide, label: 5'-Cy3).

“TTTTTTTTTTTTTTTTTTTTTTTTTTTTTTTTTTTTTTTTTTT [(Int21)-Cy3-43mer]”: binds (RAD-51 [4]; ADP, 250 nM RAD-51, stimulated by RFS-1/RIP-1, Cy3 in backbone after nt 21, 2 mM ATP or ADP or no nucleotide, label: internal Cy3); binds (RAD-51 [4]; ATP, 250 nM RAD-51, stimulated by RFS-1/RIP-1, Cy3 in backbone after nt 21, 2 mM ATP or ADP or no nucleotide, label: internal Cy3).

“TTTTTTTTTTTTTTTTTTTTTTTTTTTTTTTTTTTTTTTTTTT [Cy3-43mer (label position not stated)]”: binds (RAD-51 [4]; no nucleotide, 1 uM RAD-51 alone, complex unstable on dilution, 2 mM ATP or ADP or no nucleotide, label: Cy3); binds more weakly (RAD-51 [4]; no nucleotide, with RFS-1 E138A/RIP-1, inhibition less than wild type, 2 mM ATP or ADP or no nucleotide, label: Cy3); binds more weakly (RAD-51 [4]; no nucleotide, with RFS-1 K56A/RIP-1, inhibition less than wild type, 2 mM ATP or ADP or no …, label: Cy3). “TTTTTTTTTTTTTTTTTTTTTTTTTTTTTTTTTTTTTTTTTTT [Cy3-43mer (label position not stated)]”: no binding (scRad51; ADP, 250 nM); binds (scRad51; ATP, not stimulated by RFS-1/RIP-1); no binding (scRad51; no nucleotide, 1000 nM). “TTTTTTTTTTTTTTTTTTTTTTTTTTTTTTTTTTTTTTTTTTT [Cy3-43mer (label position not stated)]”: binds (hsRAD51 (human); ATP, not stimulated by RFS-1/RIP-1, recombinant protein); binds (hsRAD51 (human); no nucleotide, 1 uM, not changed by RFS-1/RIP-1, recombinant …); binds (RAD-51 D238A; ATP, stimulation by RFS-1/RIP-1 impaired). “TTTTTTTTTTTTTTTTTTTTTTTTTTTTTTTTTTTTTTTTTTT [Cy3-43mer (label position not stated)]”: binds (RAD-51 D238A; no nucleotide, RFS-1/RIP-1 block of binding profoundly defective).

“TTTTTTTTTTTTTTTTTTTTTTTTTTTTTTTTTTTTTTTTTTT [biotinylated dT43]”: binds (RAD-51 [5]; ADP, sensor fully coated at 1 uM RAD-51); binds more weakly (RAD-51 [5]; ADP, with RFS-1/RIP-1, dissociation stimulated); binds (RAD-51 [5]; ATP, sensor fully coated at 1 uM RAD-51).

From paper PMC8452638
